# Measured values published in the supplement of paper PMC11006884.
# Protein sequences, listed by entry. Tags and fused reporters are not part of them. Lines headed by an entry give the natural chain unless they say otherwise; changes in a name come on top.
# UniProt Q5T8A7: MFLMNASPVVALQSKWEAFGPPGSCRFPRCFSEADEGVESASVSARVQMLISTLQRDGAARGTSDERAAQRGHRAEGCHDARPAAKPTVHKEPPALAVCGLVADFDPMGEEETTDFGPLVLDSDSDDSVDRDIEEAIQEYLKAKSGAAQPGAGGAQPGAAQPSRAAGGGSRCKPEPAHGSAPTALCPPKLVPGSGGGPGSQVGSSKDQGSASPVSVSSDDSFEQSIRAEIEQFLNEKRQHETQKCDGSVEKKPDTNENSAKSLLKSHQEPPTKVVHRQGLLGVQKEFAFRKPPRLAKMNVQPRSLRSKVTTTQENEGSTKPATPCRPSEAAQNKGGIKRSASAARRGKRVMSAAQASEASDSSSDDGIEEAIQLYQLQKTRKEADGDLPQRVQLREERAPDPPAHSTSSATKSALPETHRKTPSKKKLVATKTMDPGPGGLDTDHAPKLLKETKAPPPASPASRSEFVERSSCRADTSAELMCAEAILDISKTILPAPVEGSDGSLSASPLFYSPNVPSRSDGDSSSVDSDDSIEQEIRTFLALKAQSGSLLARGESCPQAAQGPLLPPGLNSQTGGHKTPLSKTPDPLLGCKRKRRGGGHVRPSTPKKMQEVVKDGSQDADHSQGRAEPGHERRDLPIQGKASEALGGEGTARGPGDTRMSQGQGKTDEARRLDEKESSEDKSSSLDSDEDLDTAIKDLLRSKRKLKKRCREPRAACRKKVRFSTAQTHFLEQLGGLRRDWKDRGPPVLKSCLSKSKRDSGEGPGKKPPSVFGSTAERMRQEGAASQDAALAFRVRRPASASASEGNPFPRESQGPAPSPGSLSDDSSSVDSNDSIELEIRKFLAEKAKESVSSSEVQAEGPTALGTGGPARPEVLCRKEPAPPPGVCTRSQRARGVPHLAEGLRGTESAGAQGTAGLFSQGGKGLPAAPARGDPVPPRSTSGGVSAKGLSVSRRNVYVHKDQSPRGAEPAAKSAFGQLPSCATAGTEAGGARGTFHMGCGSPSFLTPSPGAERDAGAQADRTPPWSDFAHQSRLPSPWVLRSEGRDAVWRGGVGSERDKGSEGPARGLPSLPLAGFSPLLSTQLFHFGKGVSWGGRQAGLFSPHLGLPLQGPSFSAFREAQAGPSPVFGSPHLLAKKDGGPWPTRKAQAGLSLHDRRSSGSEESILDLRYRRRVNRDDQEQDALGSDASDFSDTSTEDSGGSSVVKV
# UniProt Q63HN8: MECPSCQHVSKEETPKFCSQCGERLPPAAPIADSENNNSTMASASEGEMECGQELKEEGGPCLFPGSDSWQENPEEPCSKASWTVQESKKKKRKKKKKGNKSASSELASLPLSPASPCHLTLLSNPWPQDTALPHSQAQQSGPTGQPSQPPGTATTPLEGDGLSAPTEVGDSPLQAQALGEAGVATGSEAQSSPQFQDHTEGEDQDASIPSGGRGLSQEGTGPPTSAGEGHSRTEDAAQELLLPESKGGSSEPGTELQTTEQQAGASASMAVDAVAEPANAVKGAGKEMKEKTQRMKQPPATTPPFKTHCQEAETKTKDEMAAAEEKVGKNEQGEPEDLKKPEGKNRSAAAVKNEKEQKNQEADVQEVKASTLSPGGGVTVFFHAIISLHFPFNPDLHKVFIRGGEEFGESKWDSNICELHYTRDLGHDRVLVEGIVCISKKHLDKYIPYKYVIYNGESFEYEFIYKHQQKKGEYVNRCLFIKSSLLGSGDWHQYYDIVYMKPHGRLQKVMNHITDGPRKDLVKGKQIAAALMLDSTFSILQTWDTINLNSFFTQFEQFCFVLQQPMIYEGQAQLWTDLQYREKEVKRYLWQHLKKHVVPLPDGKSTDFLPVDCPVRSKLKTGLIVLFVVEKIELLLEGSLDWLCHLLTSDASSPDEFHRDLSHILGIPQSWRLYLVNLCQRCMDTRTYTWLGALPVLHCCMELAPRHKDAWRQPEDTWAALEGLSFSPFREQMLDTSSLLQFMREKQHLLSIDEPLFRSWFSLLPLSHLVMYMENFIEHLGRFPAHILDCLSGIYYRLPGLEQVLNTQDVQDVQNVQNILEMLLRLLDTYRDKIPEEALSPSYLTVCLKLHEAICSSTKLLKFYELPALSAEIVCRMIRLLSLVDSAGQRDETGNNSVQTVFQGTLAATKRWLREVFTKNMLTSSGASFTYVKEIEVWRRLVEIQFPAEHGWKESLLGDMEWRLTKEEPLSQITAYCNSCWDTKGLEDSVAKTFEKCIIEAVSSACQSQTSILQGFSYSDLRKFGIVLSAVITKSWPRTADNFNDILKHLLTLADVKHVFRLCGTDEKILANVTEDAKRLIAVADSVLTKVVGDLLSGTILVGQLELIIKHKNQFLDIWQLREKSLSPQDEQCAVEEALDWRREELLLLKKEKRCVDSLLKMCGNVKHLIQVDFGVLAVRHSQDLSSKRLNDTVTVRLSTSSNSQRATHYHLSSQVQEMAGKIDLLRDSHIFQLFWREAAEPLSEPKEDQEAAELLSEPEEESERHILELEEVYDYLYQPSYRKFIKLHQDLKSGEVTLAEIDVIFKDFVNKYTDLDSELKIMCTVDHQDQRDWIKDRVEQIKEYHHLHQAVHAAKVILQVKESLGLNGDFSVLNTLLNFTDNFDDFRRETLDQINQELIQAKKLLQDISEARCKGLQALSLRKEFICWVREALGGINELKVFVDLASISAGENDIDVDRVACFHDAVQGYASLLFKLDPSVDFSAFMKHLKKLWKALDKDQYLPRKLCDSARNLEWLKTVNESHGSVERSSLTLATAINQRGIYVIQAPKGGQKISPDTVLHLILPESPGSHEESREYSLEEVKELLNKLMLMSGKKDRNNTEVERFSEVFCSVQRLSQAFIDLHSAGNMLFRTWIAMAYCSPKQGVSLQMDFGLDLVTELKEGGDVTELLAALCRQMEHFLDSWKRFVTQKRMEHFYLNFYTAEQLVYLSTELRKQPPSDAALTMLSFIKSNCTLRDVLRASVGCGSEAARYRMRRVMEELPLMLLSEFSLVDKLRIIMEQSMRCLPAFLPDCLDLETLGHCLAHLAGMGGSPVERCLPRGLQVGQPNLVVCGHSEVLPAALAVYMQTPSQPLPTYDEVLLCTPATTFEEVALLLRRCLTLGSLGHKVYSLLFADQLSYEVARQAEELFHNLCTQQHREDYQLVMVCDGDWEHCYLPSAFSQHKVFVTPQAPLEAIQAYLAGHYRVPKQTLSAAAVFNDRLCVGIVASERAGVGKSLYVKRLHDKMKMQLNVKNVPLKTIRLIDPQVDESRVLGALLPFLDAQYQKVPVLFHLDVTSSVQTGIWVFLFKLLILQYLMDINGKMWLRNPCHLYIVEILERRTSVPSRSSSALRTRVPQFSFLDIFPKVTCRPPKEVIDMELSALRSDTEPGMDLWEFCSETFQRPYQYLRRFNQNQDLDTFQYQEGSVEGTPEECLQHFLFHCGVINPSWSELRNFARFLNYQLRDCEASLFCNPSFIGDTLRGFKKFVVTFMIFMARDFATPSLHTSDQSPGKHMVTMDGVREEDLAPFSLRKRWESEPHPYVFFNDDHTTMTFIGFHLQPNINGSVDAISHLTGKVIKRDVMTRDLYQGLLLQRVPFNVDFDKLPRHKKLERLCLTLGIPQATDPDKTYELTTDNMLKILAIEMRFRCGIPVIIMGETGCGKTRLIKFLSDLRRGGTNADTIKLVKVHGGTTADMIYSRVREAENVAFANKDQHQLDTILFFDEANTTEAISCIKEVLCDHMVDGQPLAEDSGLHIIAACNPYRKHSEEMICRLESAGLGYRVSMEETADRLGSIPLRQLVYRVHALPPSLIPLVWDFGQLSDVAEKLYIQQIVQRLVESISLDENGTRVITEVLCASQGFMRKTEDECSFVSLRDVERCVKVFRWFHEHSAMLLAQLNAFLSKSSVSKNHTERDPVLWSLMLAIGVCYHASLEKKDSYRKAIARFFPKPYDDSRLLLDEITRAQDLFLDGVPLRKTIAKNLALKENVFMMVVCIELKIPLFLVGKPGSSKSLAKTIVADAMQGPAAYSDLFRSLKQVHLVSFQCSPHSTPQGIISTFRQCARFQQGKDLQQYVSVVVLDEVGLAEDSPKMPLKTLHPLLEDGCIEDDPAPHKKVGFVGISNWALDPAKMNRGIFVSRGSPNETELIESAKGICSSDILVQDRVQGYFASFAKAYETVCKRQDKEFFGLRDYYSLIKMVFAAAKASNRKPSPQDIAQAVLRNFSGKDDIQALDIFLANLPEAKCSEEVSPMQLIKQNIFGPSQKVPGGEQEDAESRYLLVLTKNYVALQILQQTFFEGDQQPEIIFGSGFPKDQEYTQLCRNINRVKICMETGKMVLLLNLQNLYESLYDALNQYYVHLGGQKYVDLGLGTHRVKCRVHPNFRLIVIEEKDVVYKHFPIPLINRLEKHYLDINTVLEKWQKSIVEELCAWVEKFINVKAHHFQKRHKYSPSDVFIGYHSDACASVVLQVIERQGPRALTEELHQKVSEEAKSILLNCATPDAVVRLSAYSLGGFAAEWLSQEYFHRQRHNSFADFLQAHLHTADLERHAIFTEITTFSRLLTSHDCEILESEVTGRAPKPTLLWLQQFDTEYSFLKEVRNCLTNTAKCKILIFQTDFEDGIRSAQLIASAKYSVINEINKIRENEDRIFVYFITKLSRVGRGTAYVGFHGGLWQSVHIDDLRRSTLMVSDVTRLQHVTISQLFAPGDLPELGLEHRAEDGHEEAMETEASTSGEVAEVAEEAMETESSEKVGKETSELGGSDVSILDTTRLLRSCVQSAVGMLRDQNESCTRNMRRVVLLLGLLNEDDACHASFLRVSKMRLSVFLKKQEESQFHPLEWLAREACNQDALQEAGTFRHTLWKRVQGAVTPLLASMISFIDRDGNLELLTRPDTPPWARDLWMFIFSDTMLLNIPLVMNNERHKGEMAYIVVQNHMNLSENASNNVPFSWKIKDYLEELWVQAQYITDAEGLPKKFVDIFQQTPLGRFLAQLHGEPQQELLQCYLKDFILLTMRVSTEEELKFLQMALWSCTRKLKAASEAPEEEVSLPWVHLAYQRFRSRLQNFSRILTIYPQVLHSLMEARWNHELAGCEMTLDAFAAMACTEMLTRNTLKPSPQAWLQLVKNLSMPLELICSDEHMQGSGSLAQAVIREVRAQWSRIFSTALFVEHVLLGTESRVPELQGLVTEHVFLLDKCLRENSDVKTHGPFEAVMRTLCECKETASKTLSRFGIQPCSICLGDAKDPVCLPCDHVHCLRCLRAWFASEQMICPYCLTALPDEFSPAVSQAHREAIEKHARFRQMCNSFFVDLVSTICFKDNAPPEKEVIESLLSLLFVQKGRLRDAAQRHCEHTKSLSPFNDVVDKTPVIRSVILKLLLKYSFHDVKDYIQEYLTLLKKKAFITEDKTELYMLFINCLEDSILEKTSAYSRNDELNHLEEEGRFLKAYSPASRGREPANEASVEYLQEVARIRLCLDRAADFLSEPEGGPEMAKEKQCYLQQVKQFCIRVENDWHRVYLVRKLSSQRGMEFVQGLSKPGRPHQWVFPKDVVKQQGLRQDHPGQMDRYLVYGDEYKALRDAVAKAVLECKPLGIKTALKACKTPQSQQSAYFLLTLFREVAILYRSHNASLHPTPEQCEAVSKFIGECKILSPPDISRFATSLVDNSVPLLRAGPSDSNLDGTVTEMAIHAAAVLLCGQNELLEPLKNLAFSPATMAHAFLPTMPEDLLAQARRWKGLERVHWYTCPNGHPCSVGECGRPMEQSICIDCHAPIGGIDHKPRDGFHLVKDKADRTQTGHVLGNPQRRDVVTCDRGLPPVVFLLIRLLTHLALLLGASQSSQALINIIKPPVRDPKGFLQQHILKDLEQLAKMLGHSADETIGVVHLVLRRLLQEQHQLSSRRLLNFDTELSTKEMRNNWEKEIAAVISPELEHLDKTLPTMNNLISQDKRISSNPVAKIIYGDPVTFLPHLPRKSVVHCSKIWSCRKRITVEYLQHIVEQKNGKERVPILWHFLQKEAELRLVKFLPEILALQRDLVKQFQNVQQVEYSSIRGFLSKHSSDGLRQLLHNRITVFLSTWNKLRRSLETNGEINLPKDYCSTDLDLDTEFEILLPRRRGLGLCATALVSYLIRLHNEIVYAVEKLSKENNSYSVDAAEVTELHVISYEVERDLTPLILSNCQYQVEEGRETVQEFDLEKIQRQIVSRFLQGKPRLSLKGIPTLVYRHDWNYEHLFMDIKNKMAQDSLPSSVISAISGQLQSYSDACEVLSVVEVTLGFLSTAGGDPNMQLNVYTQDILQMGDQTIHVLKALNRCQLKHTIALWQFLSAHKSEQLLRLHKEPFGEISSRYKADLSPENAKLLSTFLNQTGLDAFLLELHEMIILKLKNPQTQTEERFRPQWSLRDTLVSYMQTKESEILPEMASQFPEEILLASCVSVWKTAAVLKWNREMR
# UniProt Q5U5X0: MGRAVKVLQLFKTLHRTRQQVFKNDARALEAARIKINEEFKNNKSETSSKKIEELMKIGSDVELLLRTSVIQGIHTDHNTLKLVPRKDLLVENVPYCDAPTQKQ
# The list shows a part of the results, in another mix than the full data.
# Compound: COC(=O)C#Cc1ccccc1 [methyl 3-phenylpropiolate]
# Assay: log2 ratio of iodoacetamide-alkyne labeling of the cysteine site, DMSO over compound (competition); higher = stronger covalent engagement of the cysteine by the compound, active = 1 or more
# Details: 500 µM; treatment time 1 h; system: HEK293T cell lysate
# Outline: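 For each cysteine, the log2 competition ratio is mean control-channel reporter intensity over mean compound-channel reporter intensity. HEK293T lysate (2 mg/mL) was exposed to vehicle or electrophile (500 µM, 1 h, ambient temperature), labelled with iodoacetamide alkyne (1 h), clicked to sCIP-TMT reagents, digested overnight with trypsin at 37 °C, streptavidin-enriched and analysed by Orbitrap Eclipse LC-MS/MS with FAIMS and FragPipe. Cysteines quantified in only one of three replicates, each with duplicate channels, were excluded.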
row,Target,log2 ratio of iodoacetamide-alkyne labeling
1,PGM2L1 C303 (UniProt Q6PCE3),inactive: 0.429
2,INTS3 C498 (UniProt Q68E01),inactive: 0.142
3,DNAJC14 C537 (UniProt Q6Y2X3),inactive: 0.496
4,DNAJC21 C444 (UniProt Q5F1R6),inactive: 0.145
5,FAM117B C244 (UniProt Q6P1L5),inactive: 0.571
6,NUP188 C9 (UniProt Q5SRE5),inactive: 0.746
7,UniProt Q5T8A7_C245,inactive: -0.153
8,COQ5 C244 (UniProt Q5HYK3),inactive: 0.452
9,KANK2 C249 (UniProt Q63ZY3),inactive: 0.559
10,TMEM214 C392 (UniProt Q6NUQ4),inactive: 0.0314
11,UniProt Q63HN8_C3609,inactive: 0.17
12,SHQ1 C572 (UniProt Q6PI26),inactive: 0.26
13,UniProt Q5H9L4_C158,active: 1.09
14,MAP1S C841 (UniProt Q66K74),inactive: 0.464
15,THADA C283 (UniProt Q6YHU6),inactive: 0.143
16,CC2D1A C252 (UniProt Q6P1N0),inactive: 0.427
17,DDI2 C361 (UniProt Q5TDH0),inactive: 0.232
18,FBXL19 C142 (UniProt Q6PCT2),inactive: 0.0713
19,ATAD2 C463 (UniProt Q6PL18),inactive: 0.354

# Reformatted with tabs: entries from further up
row	Target	log2 ratio of iodoacetamide-alkyne labeling
1	PGM2L1 C303 (UniProt Q6PCE3)	inactive: 0.429
3	DNAJC14 C537 (UniProt Q6Y2X3)	inactive: 0.496
4	DNAJC21 C444 (UniProt Q5F1R6)	inactive: 0.145
5	FAM117B C244 (UniProt Q6P1L5)	inactive: 0.571
8	COQ5 C244 (UniProt Q5HYK3)	inactive: 0.452
11	UniProt Q63HN8_C3609	inactive: 0.17
14	MAP1S C841 (UniProt Q66K74)	inactive: 0.464
15	THADA C283 (UniProt Q6YHU6)	inactive: 0.143
19	ATAD2 C463 (UniProt Q6PL18)	inactive: 0.354

# Additional records follow:

row,Target,log2 ratio of iodoacetamide-alkyne labeling
1,C8orf82 C98 (UniProt Q6P1X6),inactive: 0.25
2,UniProt Q63HN8_C3008,inactive: 0.717
3,EXOSC6 C117 (UniProt Q5RKV6),inactive: 0.37
4,NADSYN1 C428 (UniProt Q6IA69),inactive: 0.129
5,WDR73 C106 (UniProt Q6P4I2),inactive: 0.112
6,ARMC6 C297 (UniProt Q6NXE6),inactive: 0.0207
7,INTS5 C514 (UniProt Q6P9B9),inactive: 0.389
8,MPRIP C831 (UniProt Q6WCQ1),inactive: 0.173
9,TJAP1 C196 (UniProt Q5JTD0),inactive: 0.14
10,TRIM65 C500 (UniProt Q6PJ69),inactive: 0.327
11,PITRM1 C780 (UniProt Q5JRX3),inactive: 0.31
12,NIPBL C419 (UniProt Q6KC79),inactive: 0.842
13,UniProt Q6P2H3_C527,inactive: -0.0686
14,RNF123 C1180 (UniProt Q5XPI4),inactive: 0.428
15,NIPBL C661 (UniProt Q6KC79),inactive: -0.0996
16,FBXL19 C145 (UniProt Q6PCT2),inactive: -0.632
17,LYRM7 C97 (UniProt Q5U5X0),inactive: 0.176
18,UniProt Q6S8J3_C972,inactive: 0.0652
